These are yes or no findings as the source states them, for the method shown. In cells and extracts the contact can be indirect. These calls come from enrichment with a bait or labelling near it, and not all partners need be listed.
Target: FLAG-BPLF1 (vDUB, N-terminal domain of the Epstein-Barr virus large tegument protein BPLF1) (Epstein-Barr virus) (UniProt P03186)
Assay: affinity purification with mass spectrometry

By UniProt entry, the sequences of proteins in these tests, tags left out. Residues count along the entry.
UniProt P03186, residues 1-235: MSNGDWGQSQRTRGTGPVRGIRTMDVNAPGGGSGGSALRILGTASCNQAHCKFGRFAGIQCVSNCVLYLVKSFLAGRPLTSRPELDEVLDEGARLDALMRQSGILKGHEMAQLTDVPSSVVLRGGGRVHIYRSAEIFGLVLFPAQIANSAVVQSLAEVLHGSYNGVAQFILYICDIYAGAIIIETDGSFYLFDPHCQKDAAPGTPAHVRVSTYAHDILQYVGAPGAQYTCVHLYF
UniProt Q9UGP8: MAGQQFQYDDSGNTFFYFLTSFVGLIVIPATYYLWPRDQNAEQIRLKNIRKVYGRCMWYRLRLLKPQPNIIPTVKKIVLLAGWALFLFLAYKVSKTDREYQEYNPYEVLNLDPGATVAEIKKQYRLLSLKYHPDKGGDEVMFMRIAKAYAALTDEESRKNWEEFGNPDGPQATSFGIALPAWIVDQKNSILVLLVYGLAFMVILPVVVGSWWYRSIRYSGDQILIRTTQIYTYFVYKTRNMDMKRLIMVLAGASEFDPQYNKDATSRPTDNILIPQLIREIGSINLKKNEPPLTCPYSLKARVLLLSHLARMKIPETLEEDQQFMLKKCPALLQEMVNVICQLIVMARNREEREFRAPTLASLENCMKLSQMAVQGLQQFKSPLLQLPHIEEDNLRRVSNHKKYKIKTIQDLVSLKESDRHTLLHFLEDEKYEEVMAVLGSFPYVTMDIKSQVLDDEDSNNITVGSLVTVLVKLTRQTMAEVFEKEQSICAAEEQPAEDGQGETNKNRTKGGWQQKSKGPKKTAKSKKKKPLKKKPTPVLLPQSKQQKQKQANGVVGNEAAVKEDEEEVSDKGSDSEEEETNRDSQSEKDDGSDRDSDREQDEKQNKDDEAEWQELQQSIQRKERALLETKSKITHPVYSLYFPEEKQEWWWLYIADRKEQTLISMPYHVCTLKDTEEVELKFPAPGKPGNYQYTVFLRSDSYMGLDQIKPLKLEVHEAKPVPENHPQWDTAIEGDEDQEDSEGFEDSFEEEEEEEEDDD
UniProt P46379: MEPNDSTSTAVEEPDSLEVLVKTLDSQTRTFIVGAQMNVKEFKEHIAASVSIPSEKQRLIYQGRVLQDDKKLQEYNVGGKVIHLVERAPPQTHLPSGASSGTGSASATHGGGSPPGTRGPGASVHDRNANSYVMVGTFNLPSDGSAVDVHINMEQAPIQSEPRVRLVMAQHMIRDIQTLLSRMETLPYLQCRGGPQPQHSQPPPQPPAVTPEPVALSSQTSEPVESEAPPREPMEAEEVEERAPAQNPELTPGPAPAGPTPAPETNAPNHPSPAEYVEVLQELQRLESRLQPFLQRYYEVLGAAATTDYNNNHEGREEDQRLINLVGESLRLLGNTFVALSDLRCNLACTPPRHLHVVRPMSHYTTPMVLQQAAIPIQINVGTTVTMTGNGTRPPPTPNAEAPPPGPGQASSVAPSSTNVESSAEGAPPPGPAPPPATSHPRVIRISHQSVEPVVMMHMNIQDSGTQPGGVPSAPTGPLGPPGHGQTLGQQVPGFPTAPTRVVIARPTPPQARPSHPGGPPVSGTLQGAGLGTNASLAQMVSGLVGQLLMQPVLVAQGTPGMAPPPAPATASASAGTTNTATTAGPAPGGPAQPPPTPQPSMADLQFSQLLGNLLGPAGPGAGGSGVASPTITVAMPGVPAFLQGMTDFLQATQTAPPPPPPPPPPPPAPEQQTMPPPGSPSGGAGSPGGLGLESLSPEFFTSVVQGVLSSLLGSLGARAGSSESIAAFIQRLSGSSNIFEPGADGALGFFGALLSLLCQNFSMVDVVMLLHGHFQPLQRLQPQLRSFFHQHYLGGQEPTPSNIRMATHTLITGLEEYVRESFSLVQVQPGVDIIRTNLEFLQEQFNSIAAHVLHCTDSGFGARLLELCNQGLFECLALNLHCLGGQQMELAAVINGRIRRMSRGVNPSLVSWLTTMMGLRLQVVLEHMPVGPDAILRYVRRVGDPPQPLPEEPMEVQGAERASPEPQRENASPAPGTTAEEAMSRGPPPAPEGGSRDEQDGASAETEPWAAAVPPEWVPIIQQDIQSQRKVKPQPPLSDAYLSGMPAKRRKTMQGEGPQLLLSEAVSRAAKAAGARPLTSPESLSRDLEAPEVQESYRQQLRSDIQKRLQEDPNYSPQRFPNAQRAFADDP
UniProt P00387: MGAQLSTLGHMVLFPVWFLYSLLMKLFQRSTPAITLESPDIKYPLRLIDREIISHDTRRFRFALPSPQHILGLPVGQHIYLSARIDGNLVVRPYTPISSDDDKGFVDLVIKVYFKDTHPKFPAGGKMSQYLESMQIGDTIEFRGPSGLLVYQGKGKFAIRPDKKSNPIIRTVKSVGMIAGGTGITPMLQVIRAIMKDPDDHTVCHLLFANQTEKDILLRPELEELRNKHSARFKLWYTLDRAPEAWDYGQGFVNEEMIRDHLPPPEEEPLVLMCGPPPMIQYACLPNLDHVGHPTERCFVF
UniProt P60468: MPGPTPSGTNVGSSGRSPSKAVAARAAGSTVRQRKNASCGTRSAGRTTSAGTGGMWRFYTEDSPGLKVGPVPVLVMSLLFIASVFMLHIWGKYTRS
UniProt Q9BY44: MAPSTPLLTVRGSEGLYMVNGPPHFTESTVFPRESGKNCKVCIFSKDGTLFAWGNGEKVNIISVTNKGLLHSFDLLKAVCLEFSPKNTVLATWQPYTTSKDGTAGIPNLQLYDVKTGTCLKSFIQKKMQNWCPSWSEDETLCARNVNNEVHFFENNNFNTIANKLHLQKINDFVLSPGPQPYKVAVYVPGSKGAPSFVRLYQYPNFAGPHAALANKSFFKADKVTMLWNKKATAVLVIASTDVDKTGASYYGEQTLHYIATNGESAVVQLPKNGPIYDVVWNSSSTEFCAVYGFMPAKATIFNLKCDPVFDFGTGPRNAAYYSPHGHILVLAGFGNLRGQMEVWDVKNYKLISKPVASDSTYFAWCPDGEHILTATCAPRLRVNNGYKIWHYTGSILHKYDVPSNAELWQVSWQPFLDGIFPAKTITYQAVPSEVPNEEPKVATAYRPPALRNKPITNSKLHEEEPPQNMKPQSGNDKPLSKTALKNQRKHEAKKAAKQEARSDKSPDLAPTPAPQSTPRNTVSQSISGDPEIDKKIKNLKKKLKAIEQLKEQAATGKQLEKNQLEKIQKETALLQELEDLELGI
UniProt Q04637: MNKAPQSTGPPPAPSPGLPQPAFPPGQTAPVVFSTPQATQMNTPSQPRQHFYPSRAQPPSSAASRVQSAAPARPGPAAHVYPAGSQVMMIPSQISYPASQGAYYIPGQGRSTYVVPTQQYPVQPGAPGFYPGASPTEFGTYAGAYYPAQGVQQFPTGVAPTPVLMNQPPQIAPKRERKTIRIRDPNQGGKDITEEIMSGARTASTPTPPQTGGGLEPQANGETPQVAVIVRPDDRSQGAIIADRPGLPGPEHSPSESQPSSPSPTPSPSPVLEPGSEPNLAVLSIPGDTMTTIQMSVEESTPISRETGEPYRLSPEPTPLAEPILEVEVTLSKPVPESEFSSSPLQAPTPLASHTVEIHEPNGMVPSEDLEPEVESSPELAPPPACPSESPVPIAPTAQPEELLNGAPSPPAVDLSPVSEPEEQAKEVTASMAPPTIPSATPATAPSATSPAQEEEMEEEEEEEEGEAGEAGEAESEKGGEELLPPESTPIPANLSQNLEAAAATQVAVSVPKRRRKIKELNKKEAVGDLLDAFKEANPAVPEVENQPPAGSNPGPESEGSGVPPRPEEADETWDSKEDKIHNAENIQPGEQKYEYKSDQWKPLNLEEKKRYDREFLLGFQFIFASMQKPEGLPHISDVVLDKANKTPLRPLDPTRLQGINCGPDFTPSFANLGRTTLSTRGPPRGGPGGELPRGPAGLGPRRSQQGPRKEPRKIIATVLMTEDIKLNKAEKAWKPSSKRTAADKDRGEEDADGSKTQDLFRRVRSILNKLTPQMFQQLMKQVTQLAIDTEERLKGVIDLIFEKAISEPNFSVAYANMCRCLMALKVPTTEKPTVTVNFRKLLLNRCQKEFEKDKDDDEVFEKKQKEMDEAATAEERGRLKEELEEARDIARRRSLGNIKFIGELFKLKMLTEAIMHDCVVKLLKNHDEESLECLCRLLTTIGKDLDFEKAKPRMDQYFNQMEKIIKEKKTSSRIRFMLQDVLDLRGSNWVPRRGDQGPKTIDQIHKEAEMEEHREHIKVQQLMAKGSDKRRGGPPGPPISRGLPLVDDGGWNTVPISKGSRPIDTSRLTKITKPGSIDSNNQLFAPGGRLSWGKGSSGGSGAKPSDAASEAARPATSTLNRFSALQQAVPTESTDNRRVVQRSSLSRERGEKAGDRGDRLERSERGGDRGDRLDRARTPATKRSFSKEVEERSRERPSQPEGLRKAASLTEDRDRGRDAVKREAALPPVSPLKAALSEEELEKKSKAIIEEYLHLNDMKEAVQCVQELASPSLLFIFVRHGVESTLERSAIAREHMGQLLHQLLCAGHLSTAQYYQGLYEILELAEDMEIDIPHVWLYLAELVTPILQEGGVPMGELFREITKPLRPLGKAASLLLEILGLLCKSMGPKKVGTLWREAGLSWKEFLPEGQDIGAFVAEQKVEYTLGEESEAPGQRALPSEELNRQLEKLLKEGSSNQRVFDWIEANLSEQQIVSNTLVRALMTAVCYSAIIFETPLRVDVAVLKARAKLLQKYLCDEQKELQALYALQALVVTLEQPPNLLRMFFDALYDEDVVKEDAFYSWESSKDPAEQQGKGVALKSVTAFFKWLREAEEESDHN

Molecule	binding
SEC63 (from UniProt Q9UGP8 1-760)	binds
BAG6 (BAG cochaperone 6) (from UniProt P46379 1-1132)	binds
CYB5R3 (cytochrome b5 reductase 3), endogenous (from UniProt P00387 1-301) (enzyme)	binds
SEC61B subunit of the SEC61 translocon (from UniProt P60468 1-96)	binds
EIF2A, endogenous (from UniProt Q9BY44 1-585)	binds
EIF4G1, endogenous (from UniProt Q04637 1-1599)	binds
SRP68 subunit of the signal recognition particle (protein, UniProt Q9UHB9 1-627) MAAEKQVPGGGGGGGSGGGGGSGGGGSGGGRGAGGEENKENERPSAGSKANKEFGDSLSLEILQIIKESQQQHGLRHGDFQRYRGYCSRRQRRLRKTLNFKMGNRHKFTGKKVTEELLTDNRYLLLVLMDAERAWSYAMQLKQEANTEPRKRFHLLSRLRKAVKHAEELERLCESNRVDAKTKLEAQAYTAYLSGMLRFEHQEWKAAIEAFNKCKTIYEKLASAFTEEQAVLYNQRVEEISPNIRYCAYNIGDQSAINELMQMRLRSGGTEGLLAEKLEALITQTRAKQAATMSEVEWRGRTVPVKIDKVRIFLLGLADNEAAIVQAESEETKERLFESMLSECRDAIQVVREELKPDQKQRDYILEGEPGKVSNLQYLHSYLTYIKLSTAIKRNENMAKGLQRALLQQQPEDDSKRSPRPQDLIRLYDIILQNLVELLQLPGLEEDKAFQKEIGLKTLVFKAYRCFFIAQSYVLVKKWSEALVLYDRVLKYANEVNSDAGAFKNSLKDLPDVQELITQVRSEKCSLQAAAILDANDAHQTETSSSQVKDNKPLVERFETFCLDPSLVTKQANLVHFPPGFQPIPCKPLFFDLALNHVAFPPLEDKLEQKTKSGLTGYIKGIFGFRS	binds
NOMO3 subunit of the multi-pass translocon/MTP complex (protein, UniProt P69849 32-1222) SEDIVVGCGGFVKSDVEINYSLIEIKLYTKHGTLKYQTDCAPNNGYFMIPLYDKGDFILKIEPPLGWSFEPTTVELHVDGVSDICTKGGDINFVFTGFSVNGKVLSKGQPLGPAGVQVSLRNTGTEAKIQSTVTQPGGKFAFFKVLPGDYEILATHPTWALKEASTTVRVTNSNANAASPLIVAGYNVSGSVRSDGEPMKGVKFLLFSSLVTKEDVLGCNVSPVPGFQPQDESLVYLCYTVSREDGSFSFYSLPSGGYTVIPFYRGERITFDVAPSRLDFTVEHDSLKIEPVFHVMGFSVTGRVLNGPEGDGVPEAVVTLNNQIKVKTKADGSFRLENITTGTYTIHAQKEHLYFETVTIKIAPNTPQLADIVATGFSVCGQISIIRFPDTVKQMNKYKVVLSSQDKDKSLVTVETDAHGSFCFKANPGTYKVQVMVPEAETRAGLTLKPQTFPLTVTDRPVMDVAFVQFLASVSGKVSCLDTCGDLLVTLQSLSRQGEKRSLQLSGKVNAMTFTFDNVLPGKYKISIMHEDWCWKNKSLEVEVLEDDVSAVEFRQTGYMLRCSLSHAITLEFYQDGNGRENVGIYNLSKGVNRFCLSKPGVYKVTPRSCHRFEQAFYTYDTSSPSILTLTAIRHHVLGTITTDKMMDVTVTIKSSIDSEPALVLGPLKSVQELRREQQLAEIEARRQEREKNGNEEGEERMTKPPVQEMVDELQGPFSYDFSYWARSGEKITVTPSSKELLFYPPSMEAVVSGESCPGKLIEIHGKAGLFLEGQIHPELEGVEIVISEKGASSPLITVFTDDKGAYSVGPLHSDLEYTVTSQKEGYVLTAVEGTIGDFKAYALAGVSFEIKAEDDQPLPGVLLSLSGGLFRSNLLTQDNGILTFSNLSPGQYYFKPMMKEFRFEPSSQMIEVQEGQNLKITITGYRTAYSCYGTVSSLNGEPEQGVAMEAVGQNDCSIYGEDTVTDEEGKFRLRGLLPGCVYHVQLKAEGNDHIERALPHHRVIEVGNNDIDDVNIIVFRQINQFDLSGNVITSSEYLPTLWVKLYKSENLDNPIQTVSLGQSLFFHFPPLLRDGENYVVLLDSTLPRSQYDYILPQVSFTAVGYHKHITLIFNPTRKLPEQDIAQGSYIALPLTLLVLLAGYNHDKLIPLLLQLTSRLQGVGALGQAASDNSGPEDAKRQAKKQKTRRT	binds
EMC1 subunit of the endoplasmic reticulum membrane protein complex/EMC (protein, UniProt Q8N766 23-993) YEDQVGKFDWRQQYVGKVKFASLEFSPGSKKLVVATEKNVIAALNSRTGEILWRHVDKGTAEGAVDAMLLHGQDVITVSNGGRIMRSWETNIGGLNWEITLDSGSFQALGLVGLQESVRYIAVLKKTTLALHHLSSGHLKWVEHLPESDSIHYQMVYSYGSGVVWALGVVPFSHVNIVKFNVEDGEIVQQVRVSTPWLQHLSGACGVVDEAVLVCPDPSSRSLQTLALETEWELRQIPLQSLDLEFGSGFQPRVLPTQPNPVDASRAQFFLHLSPSHYALLQYHYGTLSLLKNFPQTALVSFATTGEKTVAAVMACRNEVQKSSSSEDGSMGSFSEKSSSKDSLACFNQTYTINLYLVETGRRLLDTTITFSLEQSGTRPERLYIQVFLKKDDSVGYRALVQTEDHLLLFLQQLAGKVVLWSREESLAEVVCLEMVDLPLTGAQAELEGEFGKKADGLLGMFLKRLSSQLILLQAWTSHLWKMFYDARKPRSQIKNEINIDTLARDEFNLQKMMVMVTASGKLFGIESSSGTILWKQYLPNVKPDSSFKLMVQRTTAHFPHPPQCTLLVKDKESGMSSLYVFNPIFGKWSQVAPPVLKRPILQSLLLPVMDQDYAKVLLLIDDEYKVTAFPATRNVLRQLHELAPSIFFYLVDAEQGRLCGYRLRKDLTTELSWELTIPPEVQRIVKVKGKRSSEHVHSQGRVMGDRSVLYKSLNPNLLAVVTESTDAHHERTFIGIFLIDGVTGRIIHSSVQKKAKGPVHIVHSENWVVYQYWNTKARRNEFTVLELYEGTEQYNATAFSSLDRPQLPQVLQQSYIFPSSISAMEATITERGITSRHLLIGLPSGAILSLPKALLDPRRPEIPTEQSREENLIPYSPDVQIHAERFINYNQTVSRMRGIYTAPSGLESTCLVVAYGLDIYQTRVYPSKQFDVLKDDYDYVLISSVLFGLVFATMITKRLAQVKLLNRAWR	binds
RPN1 (ribophorin I), endogenous (protein, UniProt P04843 24-607) ASSEAPPLINEDVKRTVDLSSHLAKVTAEVVLAHLGGGSTSRATSFLLALEPELEARLAHLGVQVKGEDEEENNLEVRETKIKGKSGRFFTVKLPVALDPGAKISVIVETVYTHVLHPYPTQITQSEKQFVVFEGNHYFYSPYPTKTQTMRVKLASRNVESYTKLGNPTRSEDLLDYGPFRDVPAYSQDTFKVHYENNSPFLTITSMTRVIEVSHWGNIAVEENVDLKHTGAVLKGPFSRYDYQRQPDSGISSIRSFKTILPAAAQDVYYRDEIGNVSTSHLLILDDSVEMEIRPRFPLFGGWKTHYIVGYNLPSYEYLYNLGDQYALKMRFVDHVFDEQVIDSLTVKIILPEGAKNIEIDSPYEISRAPDELHYTYLDTFGRPVIVAYKKNLVEQHIQDIVVHYTFNKVLMLQEPLLVVAAFYILFFTVIIYVRLDFSITKDPAAEARMKVACITEQVLTLVNKRIGLYRHFDETVNRYKQSRDISTLNSGKKSLETEHKALTSEIALLQSRLKTEGSDLCDRVSEMQKLDAQVKELVLKSAVEAERLVAGKLKKDTYIENEKLISGKRQELVTKIDHILDAL	binds
OSTC subunit of the N-oligosaccharyltransferase (OST) complex (protein, UniProt Q9NRP0 1-149) METLYRVPFLVLECPNLKLKKPPWLHMPSAMTVYALVVVSYFLITGGIIYDVIVEPPSVGSMTDEHGHQRPVAFLAYRVNGQYIMEGLASSFLFTMGGLGFIILDRSNAPNIPKLNRFLLLFIGFVCVLLSFFMARVFMRMKLPGYLMG	binds
SRPRB (SRP receptor subunit beta) (protein, UniProt Q9Y5M8 1-271) MASADSRRVADGGGAGGTFQPYLDTLRQELQQTDPTLLSVVVAVLAVLLTLVFWKLIRSRRSSQRAVLLVGLCDSGKTLLFVRLLTGLYRDTQTSITDSCAVYRVNNNRGNSLTLIDLPGHESLRLQFLERFKSSARAIVFVVDSAAFQREVKDVAEFLYQVLIDSMGLKNTPSFLIACNKQDIAMAKSAKLIQQQLEKELNTLRVTRSAAPSTLDSSSTAPAQLGKKGKEFEFSQLPLKVEFLECSAKGGRGDVGSADIQDLEKWLAKIA	binds
ZNF598 (zink finger protein 598, E3 ubiquitin ligase) (enzyme, UniProt Q86UK7 1-904) MAAAGGAEGRRAALEAAAAAAPERGGGSCVLCCGDLEATALGRCDHPVCYRCSTKMRVLCEQRYCAVCREELRQVVFGKKLPAFATIPIHQLQHEKKYDIYFADGKVYALYRQLLQHECPRCPELPPFSLFGDLEQHMRRQHELFCCRLCLQHLQIFTYERKWYSRKDLARHRMQGDPDDTSHRGHPLCKFCDERYLDNDELLKHLRRDHYFCHFCDSDGAQDYYSDYAYLREHFREKHFLCEEGRCSTEQFTHAFRTEIDLKAHRTACHSRSRAEARQNRHIDLQFSYAPRHSRRNEGVVGGEDYEEVDRYSRQGRVARAGTRGAQQSRRGSWRYKREEEDREVAAAVRASVAAQQQEEARRSEDQEEGGRPKKEEAAARGPEDPRGPRRSPRTQGEGPGPKETSTNGPVSQEAFSVTGPAAPGCVGVPGALPPPSPKLKDEDFPSLSASTSSSCSTAATPGPVGLALPYAIPARGRSAFQEEDFPALVSSVPKPGTAPTSLVSAWNSSSSSKKVAQPPLSAQATGSGQPTRKAGKGSRGGRKGGPPFTQEEEEDGGPALQELLSTRPTGSVSSTLGLASIQPSKVGKKKKVGSEKPGTTLPQPPPATCPPGALQAPEAPASRAEGPVAVVVNGHTEGPAPARSAPKEPPGLPRPLGSFPCPTPQEDFPALGGPCPPRMPPPPGFSAVVLLKGTPPPPPPGLVPPISKPPPGFSGLLPSPHPACVPSPATTTTTKAPRLLPAPRAYLVPENFRERNLQLIQSIRDFLQSDEARFSEFKSHSGEFRQGLISAAQYYKSCRDLLGENFQKVFNELLVLLPDTAKQQELLSAHTDFCNREKPLSTKSKKNKKSAWQATTQQAGLDCRVCPTCQQVLAHGDASSHQALHAARDDDFPSLQAIARIIT	binds
SRP72 subunit of the signal recognition particle (protein, UniProt O76094 1-671) MASGGSGGVSVPALWSEVNRYGQNGDFTRALKTVNKILQINKDDVTALHCKVVCLIQNGSFKEALNVINTHTKVLANNSLSFEKAYCEYRLNRIENALKTIESANQQTDKLKELYGQVLYRLERYDECLAVYRDLVRNSQDDYDEERKTNLSAVVAAQSNWEKVVPENLGLQEGTHELCYNTACALIGQGQLNQAMKILQKAEDLCRRSLSEDTDGTEEDPQAELAIIHGQMAYILQLQGRTEEALQLYNQIIKLKPTDVGLLAVIANNIITINKDQNVFDSKKKVKLTNAEGVEFKLSKKQLQAIEFNKALLAMYTNQAEQCRKISASLQSQSPEHLLPVLIQAAQLCREKQHTKAIELLQEFSDQHPENAAEIKLTMAQLKISQGNISKACLILRSIEELKHKPGMVSALVTMYSHEEDIDSAIEVFTQAIQWYQNHQPKSPAHLSLIREAANFKLKYGRKKEAISDLQQLWKQNPKDIHTLAQLISAYSLVDPEKAKALSKHLPSSDSMSLKVDVEALENSAGATYIRKKGGKVTGDSQPKEQGQGDLKKKKKKKKGKLPKNYDPKVTPDPERWLPMRERSYYRGRKKGKKKDQIGKGTQGATAGASSELDASKTVSSPPTSPRPGSAATVSASTSNIIPPRHQKPAGAPATKKKQQQKKKKGGKGGW	binds

Reference: paper PMC12013442
